The results in this text go back to article PMC12583452.

Protein sequences, listed by entry. Tags and fused reporters are not part of them.
UniProt O94874: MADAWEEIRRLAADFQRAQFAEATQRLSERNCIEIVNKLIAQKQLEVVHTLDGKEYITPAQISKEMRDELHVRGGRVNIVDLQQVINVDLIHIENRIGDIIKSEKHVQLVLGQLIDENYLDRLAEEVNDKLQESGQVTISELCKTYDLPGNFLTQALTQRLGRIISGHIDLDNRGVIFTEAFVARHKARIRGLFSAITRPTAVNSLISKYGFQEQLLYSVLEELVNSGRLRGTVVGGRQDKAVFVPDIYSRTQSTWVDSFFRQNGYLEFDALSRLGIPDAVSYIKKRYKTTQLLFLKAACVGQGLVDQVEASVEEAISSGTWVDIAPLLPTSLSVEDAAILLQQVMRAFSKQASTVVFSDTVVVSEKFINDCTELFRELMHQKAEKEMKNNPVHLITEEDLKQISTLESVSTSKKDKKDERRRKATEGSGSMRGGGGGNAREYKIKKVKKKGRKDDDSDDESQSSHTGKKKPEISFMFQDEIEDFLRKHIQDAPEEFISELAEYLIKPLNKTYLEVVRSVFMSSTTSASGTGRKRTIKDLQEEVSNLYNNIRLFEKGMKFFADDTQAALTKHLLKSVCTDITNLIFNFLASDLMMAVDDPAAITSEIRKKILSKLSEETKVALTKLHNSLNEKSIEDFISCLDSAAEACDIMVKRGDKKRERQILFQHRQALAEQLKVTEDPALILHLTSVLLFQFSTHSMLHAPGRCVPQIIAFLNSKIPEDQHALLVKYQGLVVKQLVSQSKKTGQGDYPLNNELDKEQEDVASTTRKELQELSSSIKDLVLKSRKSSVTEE

The target of experiment [1] is FLAG-UFL1, expressed in HeLa cells (UniProt O94874). In words: proximity ligation; HeLa cells transfected with FLAG-VEC or FLAG-UFL1; PLA of UFL1 with CDC45, GINS3 or MCM5; Duolink In Situ Red kit, fixed cells.
The target is the same in experiment [2]. The experiment can be described thus: co-IP; HeLa cells expressing FLAG-UFL1, synchronised with nocodazole and lysed at times after release (association told at 8 h); UFL1 purified on FLAG M2 beads, western blot.
Experiment [3] addresses UFL1 (endogenous, HEK293T) (human (endogenous in HEK293T)) (UniProt O94874). In words: co-IP; endogenous; HEK293T cell lysates precipitated with an anti-UFL1 antibody or control IgG, western blot. Background: A western blot detects proteins with antibodies after separation by electrophoresis.
Experiment [4] has as its target T1, FLAG-MCM5 (WT), expressed in HeLa cells (human) (UniProt P33992).
T1 sequence: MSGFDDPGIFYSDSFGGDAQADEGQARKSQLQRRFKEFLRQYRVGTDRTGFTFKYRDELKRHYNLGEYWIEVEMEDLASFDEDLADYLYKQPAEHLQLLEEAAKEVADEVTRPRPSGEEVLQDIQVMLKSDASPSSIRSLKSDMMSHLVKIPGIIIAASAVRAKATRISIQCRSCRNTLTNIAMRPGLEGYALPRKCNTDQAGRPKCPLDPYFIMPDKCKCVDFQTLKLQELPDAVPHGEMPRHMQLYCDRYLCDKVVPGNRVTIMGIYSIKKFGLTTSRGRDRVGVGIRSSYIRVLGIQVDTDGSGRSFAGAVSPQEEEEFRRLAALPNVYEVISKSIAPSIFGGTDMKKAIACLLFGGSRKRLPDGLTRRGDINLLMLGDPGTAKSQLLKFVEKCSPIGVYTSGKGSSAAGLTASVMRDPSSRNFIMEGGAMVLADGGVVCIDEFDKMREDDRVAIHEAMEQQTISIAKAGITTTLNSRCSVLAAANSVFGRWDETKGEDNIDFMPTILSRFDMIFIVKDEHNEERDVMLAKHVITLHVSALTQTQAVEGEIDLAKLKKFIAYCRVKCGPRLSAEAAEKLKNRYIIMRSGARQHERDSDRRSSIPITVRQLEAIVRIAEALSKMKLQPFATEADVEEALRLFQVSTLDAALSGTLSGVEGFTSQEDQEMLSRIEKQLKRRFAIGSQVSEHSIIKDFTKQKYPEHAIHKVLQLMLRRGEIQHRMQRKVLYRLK
The experiment can be described thus: co-IP; anti-FLAG immunoprecipitates from the chromatin fraction of HeLa cells transfected with FLAG-MCM5 (WT) or (K583R); in one panel cells treated with DKM 2-93 (100 uM, 16 h).

Experiment [5] addresses T2, FLAG-MCM5 (K583R), expressed in HeLa cells (human) (UniProt P33992).
T2 sequence: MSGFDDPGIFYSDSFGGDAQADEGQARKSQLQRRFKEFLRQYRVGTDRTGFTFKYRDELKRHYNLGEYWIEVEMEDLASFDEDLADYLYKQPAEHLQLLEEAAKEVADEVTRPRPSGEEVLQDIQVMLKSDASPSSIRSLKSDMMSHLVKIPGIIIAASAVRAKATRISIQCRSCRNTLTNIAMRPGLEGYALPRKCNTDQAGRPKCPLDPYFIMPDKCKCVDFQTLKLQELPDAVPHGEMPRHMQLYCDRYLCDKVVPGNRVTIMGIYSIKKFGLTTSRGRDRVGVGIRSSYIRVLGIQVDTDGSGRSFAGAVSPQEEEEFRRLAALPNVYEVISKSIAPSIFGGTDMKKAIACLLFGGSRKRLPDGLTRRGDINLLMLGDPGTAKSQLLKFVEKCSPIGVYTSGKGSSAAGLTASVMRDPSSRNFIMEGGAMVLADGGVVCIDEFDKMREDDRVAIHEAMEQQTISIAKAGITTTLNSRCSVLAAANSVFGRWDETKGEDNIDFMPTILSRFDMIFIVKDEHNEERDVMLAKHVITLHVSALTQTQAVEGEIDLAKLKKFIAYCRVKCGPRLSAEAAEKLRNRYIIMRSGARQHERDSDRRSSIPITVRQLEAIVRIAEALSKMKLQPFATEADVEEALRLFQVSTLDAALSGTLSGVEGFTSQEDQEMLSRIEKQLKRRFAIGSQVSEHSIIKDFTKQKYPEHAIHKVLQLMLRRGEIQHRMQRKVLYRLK
Described as above.

Experiment [6] addresses T3, MCM5 (endogenous, HeLa) (human (endogenous in HeLa)) (UniProt P33992).
T3 sequence: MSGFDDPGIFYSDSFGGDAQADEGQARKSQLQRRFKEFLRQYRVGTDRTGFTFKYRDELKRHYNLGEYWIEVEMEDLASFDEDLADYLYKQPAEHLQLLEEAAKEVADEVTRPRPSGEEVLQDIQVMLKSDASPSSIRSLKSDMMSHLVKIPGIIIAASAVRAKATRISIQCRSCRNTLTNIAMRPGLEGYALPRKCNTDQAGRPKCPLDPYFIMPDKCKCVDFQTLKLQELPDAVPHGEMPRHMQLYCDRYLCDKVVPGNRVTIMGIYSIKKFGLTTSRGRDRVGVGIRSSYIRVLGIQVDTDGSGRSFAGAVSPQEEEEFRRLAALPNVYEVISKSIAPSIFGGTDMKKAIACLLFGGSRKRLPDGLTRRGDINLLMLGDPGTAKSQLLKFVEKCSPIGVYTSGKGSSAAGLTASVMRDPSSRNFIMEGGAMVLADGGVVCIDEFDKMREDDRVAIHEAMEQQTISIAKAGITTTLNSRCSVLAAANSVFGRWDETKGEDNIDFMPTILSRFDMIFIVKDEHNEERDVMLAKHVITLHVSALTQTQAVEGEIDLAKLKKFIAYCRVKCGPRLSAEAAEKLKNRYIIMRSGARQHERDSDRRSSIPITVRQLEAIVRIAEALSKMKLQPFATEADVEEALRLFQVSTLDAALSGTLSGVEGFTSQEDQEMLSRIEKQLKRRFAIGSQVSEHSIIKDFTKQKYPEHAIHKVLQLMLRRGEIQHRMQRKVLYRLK
The experiment can be described thus: co-IP; endogenous; chromatin fractions of HeLa cells, anti-MCM5 antibody or IgG; cells treated with DMSO or DKM 2-93 (100 uM), or siNC or siUFL1.

Experiment [7] addresses T3, MCM5 (endogenous, HeLa) (human (endogenous in HeLa)). In words: proximity ligation; endogenous MCM5/GINS3 and MCM5/CDC45 PLA foci in HeLa cells 1 h after release from double-thymidine block; DMSO or DKM 2-93 (100 uM), siNC or siUFL1.
Experiment [8] deals with T1, FLAG-MCM5 (WT), expressed in HeLa cells (human). The experiment can be described thus: proximity ligation; HeLa cells transfected with FLAG-VEC, FLAG-MCM5 (WT) or FLAG-MCM5 (K583R), 1 h after release from double-thymidine block; PLA with CDC45.

These are yes or no findings as the source states them, for the method shown. In cells and extracts the contact can be indirect. Some results given as binding are weak or reduced against the parent protein; the word gives no strength. For some of these results: Tags and fused reporters may be left off the sequences shown.

B1: MCM5 (endogenous, HeLa) (protein, UniProt P33992 1-734)
chain: MSGFDDPGIFYSDSFGGDAQADEGQARKSQLQRRFKEFLRQYRVGTDRTGFTFKYRDELKRHYNLGEYWIEVEMEDLASFDEDLADYLYKQPAEHLQLLEEAAKEVADEVTRPRPSGEEVLQDIQVMLKSDASPSSIRSLKSDMMSHLVKIPGIIIAASAVRAKATRISIQCRSCRNTLTNIAMRPGLEGYALPRKCNTDQAGRPKCPLDPYFIMPDKCKCVDFQTLKLQELPDAVPHGEMPRHMQLYCDRYLCDKVVPGNRVTIMGIYSIKKFGLTTSRGRDRVGVGIRSSYIRVLGIQVDTDGSGRSFAGAVSPQEEEEFRRLAALPNVYEVISKSIAPSIFGGTDMKKAIACLLFGGSRKRLPDGLTRRGDINLLMLGDPGTAKSQLLKFVEKCSPIGVYTSGKGSSAAGLTASVMRDPSSRNFIMEGGAMVLADGGVVCIDEFDKMREDDRVAIHEAMEQQTISIAKAGITTTLNSRCSVLAAANSVFGRWDETKGEDNIDFMPTILSRFDMIFIVKDEHNEERDVMLAKHVITLHVSALTQTQAVEGEIDLAKLKKFIAYCRVKCGPRLSAEAAEKLKNRYIIMRSGARQHERDSDRRSSIPITVRQLEAIVRIAEALSKMKLQPFATEADVEEALRLFQVSTLDAALSGTLSGVEGFTSQEDQEMLSRIEKQLKRRFAIGSQVSEHSIIKDFTKQKYPEHAIHKVLQLMLRRGEIQHRMQRKVLYRLK
As for B1, the binding result in experiment [1] and in experiment [2] was “binds” each time.

B2: MCM5 (endogenous, HEK293T) (protein, UniProt P33992 1-734)
chain: MSGFDDPGIFYSDSFGGDAQADEGQARKSQLQRRFKEFLRQYRVGTDRTGFTFKYRDELKRHYNLGEYWIEVEMEDLASFDEDLADYLYKQPAEHLQLLEEAAKEVADEVTRPRPSGEEVLQDIQVMLKSDASPSSIRSLKSDMMSHLVKIPGIIIAASAVRAKATRISIQCRSCRNTLTNIAMRPGLEGYALPRKCNTDQAGRPKCPLDPYFIMPDKCKCVDFQTLKLQELPDAVPHGEMPRHMQLYCDRYLCDKVVPGNRVTIMGIYSIKKFGLTTSRGRDRVGVGIRSSYIRVLGIQVDTDGSGRSFAGAVSPQEEEEFRRLAALPNVYEVISKSIAPSIFGGTDMKKAIACLLFGGSRKRLPDGLTRRGDINLLMLGDPGTAKSQLLKFVEKCSPIGVYTSGKGSSAAGLTASVMRDPSSRNFIMEGGAMVLADGGVVCIDEFDKMREDDRVAIHEAMEQQTISIAKAGITTTLNSRCSVLAAANSVFGRWDETKGEDNIDFMPTILSRFDMIFIVKDEHNEERDVMLAKHVITLHVSALTQTQAVEGEIDLAKLKKFIAYCRVKCGPRLSAEAAEKLKNRYIIMRSGARQHERDSDRRSSIPITVRQLEAIVRIAEALSKMKLQPFATEADVEEALRLFQVSTLDAALSGTLSGVEGFTSQEDQEMLSRIEKQLKRRFAIGSQVSEHSIIKDFTKQKYPEHAIHKVLQLMLRRGEIQHRMQRKVLYRLK
With B2, the binding entry in experiment [3] was “binds”.

B3: GINS3 (endogenous, HEK293T) (protein, UniProt Q9BRX5 1-216)
chain: MSEAYFRVESGALGPEENFLSLDDILMSHEKLPVRTETAMPRLGAFFLERSAGAETDNAVPQGSKLELPLWLAKGLFDNKRRILSVELPKIYQEGWRTVFSADPNVVDLHKMGPHFYGFGSQLLHFDSPENADISQSLLQTFIGRFRRIMDSSQNAYNEDTSALVARLDEMERGLFQTGQKGLNDFQCWEKGQASQITASNLVQNYKKRKFTDMED
Turning to B3, the binding result in experiment [3] was “binds”.

B4: GINS3 (endogenous, HeLa) (protein, UniProt Q9BRX5 1-216)
chain: MSEAYFRVESGALGPEENFLSLDDILMSHEKLPVRTETAMPRLGAFFLERSAGAETDNAVPQGSKLELPLWLAKGLFDNKRRILSVELPKIYQEGWRTVFSADPNVVDLHKMGPHFYGFGSQLLHFDSPENADISQSLLQTFIGRFRRIMDSSQNAYNEDTSALVARLDEMERGLFQTGQKGLNDFQCWEKGQASQITASNLVQNYKKRKFTDMED
In the case of B4, the binding entry in experiment [4], in experiment [5], in experiment [6], in experiment [1] and in experiment [7] was “binds” each time.

B5: CDC45 (endogenous, HEK293T) (protein, UniProt O75419 1-566)
chain: MFVSDFRKEFYEVVQSQRVLLFVASDVDALCACKILQALFQCDHVQYTLVPVSGWQELETAFLEHKEQFHYFILINCGANVDLLDILQPDEDTIFFVCDTHRPVNVVNVYNDTQIKLLIKQDDDLEVPAYEDIFRDEEEDEEHSGNDSDGSEPSEKRTRLEEEIVEQTMRRRQRREWEARRRDILFDYEQYEYHGTSSAMVMFELAWMLSKDLNDMLWWAIVGLTDQWVQDKITQMKYVTDVGVLQRHVSRHNHRNEDEENTLSVDCTRISFEYDLRLVLYQHWSLHDSLCNTSYTAARFKLWSVHGQKRLQEFLADMGLPLKQVKQKFQAMDISLKENLREMIEESANKFGMKDMRVQTFSIHFGFKHKFLASDVVFATMSLMESPEKDGSGTDHFIQALDSLSRSNLDKLYHGLELAKKQLRATQQTIASCLCTNLVISQGPFLYCSLMEGTPDVMLFSRPASLSLLSKHLLKSFVCSTKNRRCKLLPLVMAAPLSMEHGTVTVVGIPPETDSSDRKNFFGRAFEKAAESTSSRMLHNHFDLSVIELKAEDRSKFLDALISLLS
For B5, the binding entry in experiment [3] is reported as “binds”.

B6: CDC45 (endogenous, HeLa) (protein, UniProt O75419 1-566)
chain: MFVSDFRKEFYEVVQSQRVLLFVASDVDALCACKILQALFQCDHVQYTLVPVSGWQELETAFLEHKEQFHYFILINCGANVDLLDILQPDEDTIFFVCDTHRPVNVVNVYNDTQIKLLIKQDDDLEVPAYEDIFRDEEEDEEHSGNDSDGSEPSEKRTRLEEEIVEQTMRRRQRREWEARRRDILFDYEQYEYHGTSSAMVMFELAWMLSKDLNDMLWWAIVGLTDQWVQDKITQMKYVTDVGVLQRHVSRHNHRNEDEENTLSVDCTRISFEYDLRLVLYQHWSLHDSLCNTSYTAARFKLWSVHGQKRLQEFLADMGLPLKQVKQKFQAMDISLKENLREMIEESANKFGMKDMRVQTFSIHFGFKHKFLASDVVFATMSLMESPEKDGSGTDHFIQALDSLSRSNLDKLYHGLELAKKQLRATQQTIASCLCTNLVISQGPFLYCSLMEGTPDVMLFSRPASLSLLSKHLLKSFVCSTKNRRCKLLPLVMAAPLSMEHGTVTVVGIPPETDSSDRKNFFGRAFEKAAESTSSRMLHNHFDLSVIELKAEDRSKFLDALISLLS
Turning to B6, the binding entry in experiment [4], in experiment [5], in experiment [6], in experiment [1], in experiment [8] and in experiment [7] was “binds” each time.
